Assay results: patent EP4676953A2
No constants are given. Whether binding was seen depends on the method and setting. Some binding calls cover weakened binding; strength is not graded here.

Protein sequences, listed by entry. Tags and fused reporters are not part of them. Residues count along the entry.
UniProt P49862, residues 30-253: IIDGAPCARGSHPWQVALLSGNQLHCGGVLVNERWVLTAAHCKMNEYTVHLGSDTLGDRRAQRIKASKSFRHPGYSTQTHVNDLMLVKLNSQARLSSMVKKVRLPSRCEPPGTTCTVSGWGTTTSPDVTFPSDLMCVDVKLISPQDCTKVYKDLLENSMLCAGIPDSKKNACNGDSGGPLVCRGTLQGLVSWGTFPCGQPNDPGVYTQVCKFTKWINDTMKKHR

Biological target: active form of human KLK7 (huKLK7) (human) (UniProt P49862)
Test: Biacore sandwich binning, SPINK5 coupled to CM5 chip (legend of FIG. 6)

- binding: binds
B1: recombinant human SPINK5 (protein, UniProt Q9NQ38 490-757, looked up)
chain: EAAKEICSEFRDQVRNGTLICTREHNPVRGPDGKMHGNKCAMCASVFKLEEEEKKNDKEEKGKVEAEKVKREAVQELCSEYRHYVRNGRLPCTRENDPIEGLDGKIHGNTCSMCEAFFQQEAKEKERAEPRAKVKREAEKETCDEFRRLLQNGKLFCTRENDPVRGPDGKTHGNKCAMCKAVFQKENEERKRKEEEDQRNAAGHGSSGGGGGNTQDECAEYREQMKNGRLSCTRESDPVRDADGKSYNNQCTMCKAKLEREAERKNEY
